In US10111937B2, “Method of reducing accumulation of intracellular tingible body macrophages” (THE REGENTS OF THE UNIVERSITY OF MICHIGAN, priority 2008, dated 2018):

Test system: MDCK cells
Conditions: 1 or 7 days of exposure, FIG. 10B
Experimental: LPLA2 activity was measured as the transacylation of N-acetylsphingosine. […] The major cellular phospholipids were assayed following 1 or 7 days of exposure to the CAD.

## CCCCc1oc2ccccc2c1C(=O)c1cc(I)c(OCCN(CC)CC)c(I)c1 [amiodarone]
  cell phospholipids, most notably PC and PE: time dependent increase in cell phospholipids
